# Some of these results come from one statement about several compounds together.
# Tested on: TPA-induced inflammation of the mouse ear
# Assay: Anti-inflammatory activity, TPA-induced mouse ear inflammation
# Assay type: in vivo, ICR mice
# Settings: 0.5% in acetone, 20 µl, FIG. 10 (Exp. Ex. 11)
# Protocol: The adenosine derivatives of the present invention were examined for anti-inflammatory activity in the following animal test. Seven-week-old male ICR mice were treated with TPA (12-O-tetradecanoylphorbol-13-acetate, 20 µl) in the right ear. […] Hydrocortisone was used at the same concentration as a control.
# 6 hrs after treatment with TPA, the mice were secondarily treated with the adenosine derivatives of the present invention. 24 hrs after TPA treatment, test animals were euthanized using a cervical dislocation method. Samples were obtained from the right ear using a 6 mm diameter punch. The activity was observed by measuring the ear sample using a microbalance. Percentages of inhibition were calculated using the following Equation 1. The compositions and amounts used in these experiments are summarized in Tables 14 to 17 and the anti-inflammatory activities thereof are shown in FIGS. 10 to 13. % Inhibition = (1−Rt.Ear(Test−Nontreated))/(Rt.Ear(TPAonly−Nontreated)) [formula]
row,SMILES,inhibition of TPA-induced inflammation of the mouse ear
1,"O[C@@H]1[C@H](O)CS[C@H]1n1cnc2c(NCc3cccc(Br)c3)nc(Cl)nc21 [Example 3, (2R,3R,4S)-2-(6-(3-bromobenzylamino)-2-chloro-9H-purin-9-yl)tetrahydrothiophen-3,4-diol]",inhibit the TPA-induced inflammation of the mouse ear to some degree
2,"O[C@@H]1[C@H](O)CS[C@H]1n1cnc2c(NCc3cccc(Cl)c3)nc(Cl)nc21 [Example 2, (2R,3R,4S)-2-(2-chloro-6-(3-chlorobenzylamino)-9H-purin-9-yl)tetrahydrothiophen-3,4-diol]",inhibit the TPA-induced inflammation of the mouse ear to some degree
3,"O[C@@H]1[C@H](O)CS[C@H]1n1cnc2c(NCc3cccc(I)c3)nc(Cl)nc21 [Example 4, (2R,3R,4S)-2-(2-chloro-6-(3-iodobenzylamino)-9H-purin-9-yl)tetrahydrothiophen-3,4-diol]",inhibit the TPA-induced inflammation of the mouse ear to some degree

# From patent EP4186514A1, “PHARMACEUTICAL COMPOSITION FOR PREVENTING OR TREATING CHOLANGITIS OR LIVER DISEASE CAUSED BY CHOLANGITIS COMPRISING ADENOSINE DERIVATIVE” (Future Medicine Co., Ltd., priority 2021, dated 2023)
